Assays:
Aromatase [1] = target: T1, Aromatase (Homo sapiens, UniProt P11511)
T1 sequence (P11511 whole entry): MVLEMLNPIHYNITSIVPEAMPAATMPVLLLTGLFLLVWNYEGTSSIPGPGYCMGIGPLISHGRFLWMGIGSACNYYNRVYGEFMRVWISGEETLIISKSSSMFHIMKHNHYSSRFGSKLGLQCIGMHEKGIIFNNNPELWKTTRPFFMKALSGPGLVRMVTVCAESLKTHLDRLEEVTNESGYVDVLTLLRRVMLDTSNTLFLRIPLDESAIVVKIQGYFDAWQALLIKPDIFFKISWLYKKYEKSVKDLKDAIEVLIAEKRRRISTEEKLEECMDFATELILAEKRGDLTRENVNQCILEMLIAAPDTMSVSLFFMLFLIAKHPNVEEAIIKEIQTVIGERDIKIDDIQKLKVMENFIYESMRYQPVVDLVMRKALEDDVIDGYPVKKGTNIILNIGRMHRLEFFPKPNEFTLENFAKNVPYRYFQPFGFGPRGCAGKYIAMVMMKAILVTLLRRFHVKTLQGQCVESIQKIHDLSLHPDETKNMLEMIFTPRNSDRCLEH

Aromatase [2] = target: T1, Aromatase; test: Competitive inhibition of human aromatase extracted from placental microsomes by Dixon plot analysis in presence of [1beta-3H]AD

| SMILES | Ki (Aromatase [1]) [nM] | Ki (Aromatase [2]) [nM] |
| --- | --- | --- |
| C[C@]12CC[C@H]3[C@@H](C[C@H]4OC[C@@]35CCC(=O)C=C45)[C@@H]1CCC2=O | 2200 | – |
| C[C@]12C[C@@H](F)C(=O)C=C1CC[C@@H]1[C@@H]2CC[C@]2(C)C(=O)CC[C@@H]12 | – | 45 |

— ChEMBL document CHEMBL3751755, “Developing steroidal aromatase inhibitors-an effective armament to win the battle against breast cancer” (Eur J Med Chem, 2015)
